B1: PDS5A (protein, UniProt Q29RF7 1-1337, looked up)
Sister chromatid cohesion …: MDFTAQPKPATALCGVVSADGKIAYPPGVKEITDKITTDEMIKRLKMVVKTFMDMDQDSEDEKQQYLPLALHLASEFFLRNPNKDVRLLVACCLADIFRIYAPEAPYTSHDKLKDIFLFITRQLKGLEDTKSPQFNRYFYLLENLAWVKSYNICFELEDCNEIFIQLFRTLFSVINNSHNKKVQMHMLDLMSSIIMEGDGVTQELLDSILINLIPAHKNLNKQSFDLAKVLLKRTVQTIEACIANFFNQVLVLGRSSVSDLSEHVFDLIQELFAIDPHLLLSVMPQLEFKLKSNDGEERLAVVRLLAKLFGSKDSDLATQNRPLWQCFLGRFNDIHVPVRLESVKFASHCLMNHPDLAKDLTEYLKVRSHDPEEAIRHDVIVTIITAAKRDLALVNDQLLGFVRERTLDKRWRVRKEAMMGLAQLYKKYCLHGEAGKEAAEKVSWIKDKLLHIYYQNSIDDKLLVEKIFAQYLVPHNLETEERMKCLYYLYASLDPNAVKALNEMWKCQNMLRSHVRELLDLHKQPTSEANCSAMFGKLMTIAKNLPDPGKAQDFVKKFNQVLGDDEKLRSQLELLISPTCSCKQADICVREIARKLANPKQPTNPFLEMVKFLLERIAPVHIDSEAISALVKLMNKSIEGTADDEEEGVSPDTAIRSGLELLKVLSFTHPTSFHSAETYESLLQCLRMEDDKVAEAAIQIFRNTGHKIETDLPQIRSTLIPILHQKAKRGTPHQAKQAVHCIHAIFTNKEVQLAQIFEPLSRSLNADVPEQLITPLVSLGHISMLAPDQFASPMKSVVANFIVKDLLMNDRSTGEKNGKLWSPDEEVSPEVLAKVQAIKLLVRWLLGMKNNQSKSANSTLRLLSAMLVSEGDLTEQKRISKSDMSRLRLAAGSAIMKLAQEPCYHEIITPEQFQLCALVINDECYQVRQIFAQKLHKALVKLLLPLEYMAIFALCAKDPVKERRAHARQCLLKNISIRREYIKQNPMATEKLLSLLPEYVVPYMIHLLAHDPDFTRSQDVDQLRDIKECLWFMLEVLMTKNENNSHAFMKKMAENIKLTRDAQSPDESKTNEKLYTVCDVALCVINSKSALCNADSPKDPVLPMKFFTQPEKDFCNDKSYISEETRVLLLTGKPKPAGVLGAVNKPLSATGRKPYVRSTGTETGSNINVNSELNPSTGNRSREQSSEAAETGVSENEENPVRIISVTPVKNIDPVKNKEINSDQATQGNISSDRGKKRTVTAAGAENIQQKTDEKVDESGPPAPSKPRRGRRPKSESQGNATKNDDLNKPINKGRKRAAVGQESPGGLEAGNAKAPKLQDLAKKAAPAERQIDLQR
B2: RBMX (protein, UniProt P38159 1-391, looked up)
RNA-binding motif protein, X …: MVEADRPGKLFIGGLNTETNEKALEAVFGKYGRIVEVLLMKDRETNKSRGFAFVTFESPADAKDAARDMNGKSLDGKAIKVEQATKPSFESGRRGPPPPPRSRGPPRGLRGGRGGSGGTRGPPSRGGHMDDGGYSMNFNMSSSRGPLPVKRGPPPRSGGPPPKRSAPSGPVRSSSGMGGRAPVSRGRDSYGGPPRREPLPSRRDVYLSPRDDGYSTKDSYSSRDYPSSRDTRDYAPPPRDYTYRDYGHSSSRDDYPSRGYSDRDGYGRDRDYSDHPSGGSYRDSYESYGNSRSAPPTRGPPPSYGGSSRYDDYSSSRDGYGGSRDSYSSSRSDLYSSGRDRVGRQERGLPPSMERGYPPPRDSYSSSSRGAPRGGGRGGSRSDRGGGRSRY
B3: TAMM41 (protein, UniProt Q96BW9 1-452, looked up)
Phosphatidate …: MALQTLQSSWVTFRKILSHFPEELSLAFVYGSGVYRQAGPSSDQKNAMLDFVFTVDDPVAWHSKNLKKNWSHYSFLKVLGPKIITSIQNNYGAGVYYNSLIMCNGRLIKYGVISTNVLIEDLLNWNNLYIAGRLQKPVKIISVNEDVTLRSALDRNLKSAVTAAFLMLPESFSEEDLFIEIAGLSYSGDFRMVVGEDKTKVLNIVKPNIAHFRELYGSILQENPQVVYKSQQGWLEIDKSPEGQFTQLMTLPKTLQQQINHIMDPPGKNRDVEETLFQVAHDPDCGDVVRLGLSAIVRPSSIRQSTKGIFTAGKSFGNPCVTYLLTEWLPHSWLQCKALYLLGACEMLSFDGHKLGYCSKVQTGITAAEPGGRTMSDHWQCCWKLYCPSEFSETLPVCRVFPSYCFIYQSYRCIGLQKQQHLCSPSSSPSLRQLLPSVLVGYFCCYCHFSKW
B4: CACTIN (protein, UniProt Q8WUQ7 1-758, looked up)
Splicing factor Cactin: MGRDTRSRSRSAGRRGRRRQSQSGSRSRSRSHGRRNRRRREDEGRRRRRRRSRERRSDSEEERWQRSGMRSRSPPRPKWHSRDGSSQSDSGEEQSRGQWARRRRRARSWSPSSSASSSASPGRSQSPRAAAAALSQQQSLQERLRLREERKQQEELMKAFETPEEKRARRLAKKEAKERKKREKMGWGEEYMGYTNTDNPFGDNNLLGTFIWNKALEKKGISHLEEKELKERNKRIQEDNRLELQKVKQLRLEREREKAMREQELEMLQREKEAEHFKTWEEQEDNFHLQQAKLRSKIRIRDGRAKPIDLLAKYISAEDDDLAVEMHEPYTFLNGLTVADMEDLLEDIQVYMELEQGKNADFWRDMTTITEDEISKLRKLEASGKGPGERREGVNASVSSDVQSVFKGKTYNQLQVIFQGIEGKIRAGGPNLDMGYWESLLQQLRAHMARARLRERHQDVLRQKLYKLKQEQGVESEPLFPILKQEPQSPSRSLEPEDAAPTPPGPSSEGGPAEAEVDGATPTEGDGDGDGEGEGEGEAVLMEEDLIQQSLDDYDAGRYSPRLLTAHELPLDAHVLEPDEDLQRLQLSRQQLQVTGDASESAEDIFFRRAKEGMGQDEAQFSVEMPLTGKAYLWADKYRPRKPRFFNRVHTGFEWNKYNQTHYDFDNPPPKIVQGYKFNIFYPDLIDKRSTPEYFLEACADNKDFAILRFHAGPPYEDIAFKIVNREWEYSHRHGFRCQFANGIFQLWFHFKRYRYRR
B5: TIMM23B (protein, UniProt Q5SRD1 1-188, looked up)
Mitochondrial import inner …: MEGGGGSGDKTTGVLAGFFGAGEAGYSHADLAGVPLTGMNPLCPYLNVDPRYLVQDTDEFILPTGANKTWGRFELAFFTIGGCCMTGAAFGAMNGLRLGLKETQNMAWSKPGNVQILNMVTRQGALWANTLGSLALLYSAFGVIIEKTRGAEDDLNTVAAGTMTGMLYKCTVSEMALDSPFCVLLSGS
B6: ALG1 (protein, UniProt Q9BT22 1-464, looked up)
Chitobiosyldiphosphodolichol …: MAASCLVLLALCLLLPLLLLGGWKRWRRGRAARHVVAVVLGDVGRSPRMQYHALSLAMHGFSVTLLGFCNSKPHDELLQNNRIQIVGLTELQSLAVGPRVFQYGVKVVLQAMYLLWKLMWREPGAYIFLQNPPGLPSIAVCWFVGCLCGSKLVIDWHNYGYSIMGLVHGPNHPLVLLAKWYEKFFGRLSHLNLCVTNAMREDLADNWHIRAVTVYDKPASFFKETPLDLQHRLFMKLGSMHSPFRARSEPEDPVTERSAFTERDAGSGLVTRLRERPALLVSSTSWTEDEDFSILLAALEKFEQLTLDGHNLPSLVCVITGKGPLREYYSRLIHQKHFQHIQVCTPWLEAEDYPLLLGSADLGVCLHTSSSGLDLPMKVVDMFGCCLPVCAVNFKCLHELVKHEENGLVFEDSEELAAQLQMLFSNFPDPAGKLNQFRKNLRESQQLRWDESWVQTVLPLVMDT
B7: ILVBL (protein, UniProt A1L0T0 1-632, looked up)
2-hydroxyacyl-CoA lyase 2: METPAAAAPAGSLFPSFLLLACGTLVAALLGAAHRLGLFYQLLHKVDKASVRHGGENVAAVLRAHGVRFIFTLVGGHISPLLVACEKLGIRVVDTRHEVTAVFAADAMARLSGTVGVAAVTAGPGLTNTVTAVKNAQMAQSPILLLGGAASTLLQNRGALQAVDQLSLFRPLCKFCVSVRRVRDIVPTLRAAMAAAQSGTPGPVFVELPVDVLYPYFMVQKEMVPAKPPKGLVGRVVSWYLENYLANLFAGAWEPQPEGPLPLDIPQASPQQVQRCVEILSRAKRPLMVLGSQALLTPTSADKLRAAVETLGVPCFLGGMARGLLGRNHPLHIRENRSAALKKADVIVLAGTVCDFRLSYGRVLSHSSKIIIVNRNREEMLLNSDIFWKPQEAVQGDVGSFVLKLVEGLQGQTWAPDWVEELREADRQKEQTFREKAAMPVAQHLNPVQVLQLVEETLPDNSILVVDGGDFVGTAAHLVQPRGPLRWLDPGAFGTLGVGAGFALGAKLCRPDAEVWCLFGDGAFGYSLIEFDTFVRHKIPVMALVGNDAGWTQISREQVPSLGSNVACGLAYTDYHKAAMGLGARGLLLSRENEDQVVKVLHDAQQQCRDGHPVVVNILIGRTDFRDGSIAV
B8: RPP30 (protein, UniProt P78346 2-268, looked up)
Ribonuclease P protein …: AVFADLDLRAGSDLKALRGLVETAAHLGYSVVAINHIVDFKEKKQEIEKPVAVSELFTTLPIVQGKSRPIKILTRLTIIVSDPSHCNVLRATSSRARLYDVVAVFPKTEKLFHIACTHLDVDLVCITVTEKLPFYFKRPPINVAIDRGLAFELVYSPAIKDSTMRRYTISSALNLMQICKGKNVIISSAAERPLEIRGPYDVANLGLLFGLSESDAKAAVSTNCRAALLHGETRKTAFGIISTVKKPRPSEGDEDCLPASKKAKCEG
B9: NOLC1 (protein, UniProt Q14978 1-699, looked up)
Nucleolar and coiled-body …: MADAGIRRVVPSDLYPLVLGFLRDNQLSEVANKFAKATGATQQDANASSLLDIYSFWLKSAKVPERKLQANGPVAKKAKKKASSSDSEDSSEEEEEVQGPPAKKAAVPAKRVGLPPGKAAAKASESSSSEESSDDDDEEDQKKQPVQKGVKPQAKAAKAPPKKAKSSDSDSDSSSEDEPPKNQKPKITPVTVKAQTKAPPKPARAAPKIANGKAASSSSSSSSSSSSDDSEEEKAAATPKKTVPKKQVVAKAPVKAATTPTRKSSSSEDSSSDEEEEQKKPMKNKPGPYSSVPPPSAPPPKKSLGTQPPKKAVEKQQPVESSEDSSDESDSSSEEEKKPPTKAVVSKATTKPPPAKKAAESSSDSSDSDSSEDDEAPSKPAGTTKNSSNKPAVTTKSPAVKPAAAPKQPVGGGQKLLTRKADSSSSEEESSSSEEEKTKKMVATTKPKATAKAALSLPAKQAPQGSRDSSSDSDSSSSEEEEEKTSKSAVKKKPQKVAGGAAPSKPASAKKGKAESSNSSSSDDSSEEEEEKLKGKGSPRPQAPKANGTSALTAQNGKAAKNSEEEEEEKKKAAVVVSKSGSLKKRKQNEAAKEAETPQAKKIKLQTPNTFPKRKKGEKRASSPFRRVREEEIEVDSRVADNSFDAKRGAAGDWGERANQVLKFTKGKSFRHEKTKKKRGSYRGGSISVQVNSIKFDSE
B10: MSN (protein, UniProt P26038 2-577, looked up)
Moesin: PKTISVRVTTMDAELEFAIQPNTTGKQLFDQVVKTIGLREVWFFGLQYQDTKGFSTWLKLNKKVTAQDVRKESPLLFKFRAKFYPEDVSEELIQDITQRLFFLQVKEGILNDDIYCPPETAVLLASYAVQSKYGDFNKEVHKSGYLAGDKLLPQRVLEQHKLNKDQWEERIQVWHEEHRGMLREDAVLEYLKIAQDLEMYGVNYFSIKNKKGSELWLGVDALGLNIYEQNDRLTPKIGFPWSEIRNISFNDKKFVIKPIDKKAPDFVFYAPRLRINKRILALCMGNHELYMRRRKPDTIEVQQMKAQAREEKHQKQMERAMLENEKKKREMAEKEKEKIEREKEELMERLKQIEEQTKKAQQELEEQTRRALELEQERKRAQSEAEKLAKERQEAEEAKEALLQASRDQKKTQEQLALEMAELTARISQLEMARQKKESEAVEWQQKAQMVQEDLEKTRAELKTAMSTPHVAEPAENEQDEQDENGAEASADLRADAMAKDRSEEERTTEAEKNERVQKHLKALTSELANARDESKKTANDMIHAENMRLGRDKYKTLRQIRQGNTKQRIDEFESM

tested on: mSWI/SNF complexes; test: mSWI/SNF complex purification with HA-tagged baits and mass spectrometry (peptide counts); set-up: species or system human; settings: 293_HA-BRD7 bait purification, mass spectrometry; total peptides per co-purified protein

Total, 1:
B1, B2, B3, B4, B5, B6, B7, B8, B9, B10

same assay, conditions: 293_HA-BRD7 bait purification, mass spectrometry; unique peptides per co-purified protein

Unique, 1:
B1, B2, B3, B4, B5, B6, B7, B8, B9, B10
